The target of the test is T1, mCRP1/ICOS expressed on CHO D-cells (clone 1.41) (murine) (UniProt Q9WVS0).
T1 sequence (looked up): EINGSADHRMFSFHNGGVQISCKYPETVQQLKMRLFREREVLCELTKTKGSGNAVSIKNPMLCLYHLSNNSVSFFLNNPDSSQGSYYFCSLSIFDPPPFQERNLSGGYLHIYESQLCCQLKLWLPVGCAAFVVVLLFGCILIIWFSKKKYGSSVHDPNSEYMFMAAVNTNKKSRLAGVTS
The test can be described thus: FACS on mCRP1/ICOS-transfected CHO D-cells, anti-human IgG Fc-FITC detection.

The chains behind the UniProt entries cited, without tags or fusion partners. Residues count along the entry.
UniProt Q9JHJ8, residues 47-269: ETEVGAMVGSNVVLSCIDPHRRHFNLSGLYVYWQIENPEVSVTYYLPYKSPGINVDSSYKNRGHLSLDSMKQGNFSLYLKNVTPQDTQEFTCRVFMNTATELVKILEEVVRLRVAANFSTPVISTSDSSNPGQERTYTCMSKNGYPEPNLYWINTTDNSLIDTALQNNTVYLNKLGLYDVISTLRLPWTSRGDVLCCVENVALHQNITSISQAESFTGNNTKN

These are yes or no findings as the source states them, for the method shown. Some entries that bind do so weakly or less than the wild type.

We go through one substance from US20020107363A1.

Turning to “murine B7rp-1/Fc fusion protein (from UniProt Q9JHJ8 47-269)”, the binding entry is recorded as “binds”.
